Source: PMC6892545

The chains behind the UniProt entries cited, without tags or fusion partners. Where a name states a change or a piece, a line headed by the entry shows the natural chain unless it says otherwise.
UniProt P40537: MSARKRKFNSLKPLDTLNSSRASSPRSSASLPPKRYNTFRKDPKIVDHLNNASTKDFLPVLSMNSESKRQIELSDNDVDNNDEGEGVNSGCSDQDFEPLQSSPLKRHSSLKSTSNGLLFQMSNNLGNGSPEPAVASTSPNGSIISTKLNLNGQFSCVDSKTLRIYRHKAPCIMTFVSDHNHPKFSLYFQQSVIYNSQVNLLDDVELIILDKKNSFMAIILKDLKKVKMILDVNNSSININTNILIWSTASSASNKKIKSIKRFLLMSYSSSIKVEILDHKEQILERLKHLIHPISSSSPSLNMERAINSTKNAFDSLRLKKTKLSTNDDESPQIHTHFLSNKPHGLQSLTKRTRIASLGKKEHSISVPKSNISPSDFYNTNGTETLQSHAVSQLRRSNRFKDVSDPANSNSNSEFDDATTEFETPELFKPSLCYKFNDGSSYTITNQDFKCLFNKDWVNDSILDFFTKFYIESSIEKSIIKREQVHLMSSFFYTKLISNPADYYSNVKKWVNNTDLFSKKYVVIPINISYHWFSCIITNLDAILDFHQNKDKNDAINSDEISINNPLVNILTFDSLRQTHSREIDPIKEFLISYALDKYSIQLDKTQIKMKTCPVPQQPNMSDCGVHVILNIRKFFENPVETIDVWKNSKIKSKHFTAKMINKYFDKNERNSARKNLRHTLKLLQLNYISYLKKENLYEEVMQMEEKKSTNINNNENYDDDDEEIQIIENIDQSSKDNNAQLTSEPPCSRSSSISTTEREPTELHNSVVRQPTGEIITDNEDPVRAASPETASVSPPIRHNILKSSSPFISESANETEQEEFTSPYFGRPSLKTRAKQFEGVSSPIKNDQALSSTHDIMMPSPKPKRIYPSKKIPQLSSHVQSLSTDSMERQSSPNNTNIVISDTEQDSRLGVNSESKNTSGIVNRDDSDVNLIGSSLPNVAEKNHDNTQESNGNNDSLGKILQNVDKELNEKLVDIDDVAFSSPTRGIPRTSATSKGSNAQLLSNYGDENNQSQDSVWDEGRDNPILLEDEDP
UniProt Q06675: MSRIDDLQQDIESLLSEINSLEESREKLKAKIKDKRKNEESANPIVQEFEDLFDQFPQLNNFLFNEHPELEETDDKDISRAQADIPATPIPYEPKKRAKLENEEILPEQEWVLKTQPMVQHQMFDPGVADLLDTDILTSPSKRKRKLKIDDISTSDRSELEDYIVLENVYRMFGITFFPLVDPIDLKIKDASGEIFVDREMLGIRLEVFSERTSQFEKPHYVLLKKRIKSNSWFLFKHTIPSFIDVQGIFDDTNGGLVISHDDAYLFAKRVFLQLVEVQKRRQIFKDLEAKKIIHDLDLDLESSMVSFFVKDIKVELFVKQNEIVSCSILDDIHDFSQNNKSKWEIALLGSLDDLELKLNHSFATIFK

Molecular target: Ulp2^873-1034 CCR^3A mutant, on CNBr-activated resin (S. cerevisiae) (UniProt P40537)
Assay: pull-down; Ulp2^873-1034 (wild type or CCR^3A) on CNBr-activated resin incubated with yeast whole cell extract (wild-type strain background; also cnn1Δ), 2 h at 4 °C, PBSN buffer; anti-Protein A Western blot; only the target purified

Mcm21, endogenously tagged, in yeast cell extract (from UniProt Q06675 1-368)
binding: no binding

Results are given in words; binding and its absence hold for the method and conditions named. In cells and extracts the contact can be indirect.
